PubChem BioAssay AID1259308 – NCATS, 2017
Aim: 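Genes whose loss raises luciferase production in HEK293 cells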 (primary screen). Cell system: human HEK293 embryonic kidney cells stably expressing firefly luciferase (HEK-CMV-Luc2-Hygro). Knock-down reagent: single siRNA against human genes, 0.8 pmol siRNA per well. Duration: 72 h. Detection: 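Luciferase light (ONE-Glo) measured on one replicate plate set and viability (CellTiter-Glo) on the other, scaled to a negative control siRNA, with robust z-scores and luciferase per cell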. Scale: total luciferase, z-score and total luciferase, % of control: higher = more reporter protein produced; luciferase per cell, z-score: higher = more reporter output per viable cell. Hit rule: 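An siRNA counts as active if its total luciferase robust z-score exceeds 3; genes with two or more such siRNAs out of three were retested with fresh siRNAs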. Calls: active = raised luciferase; inactive = no rise.
The deposit covers about 59,000 reagents; shown is an unselected part. In the full data, about 1,510 (2.6%) were called active. 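Calls use total luciferase alone and ignore viability, so some active siRNAs may act by altering cell number.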 Further read-outs or replicates are left out here. Reagent sequences are not shown.

Gene | PubChem SID | total luciferase, z-score | total luciferase, % of control | luciferase per cell, z-score | Call
HBG1 (hemoglobin subunit gamma 1) | SID160723842 | 0.717 | 96.1 | 0.405 | inactive
HBG1 (hemoglobin subunit gamma 1) | SID160731058 | -0.736 | 67.2 | -1.19 | inactive
HBG1 (hemoglobin subunit gamma 1) | SID160774865 | -2.4 | 34.1 | -0.497 | inactive
ZNF442 (zinc finger protein 442) | SID160749883 | -2.19 | 38.3 | 0.433 | inactive
ZNF442 (zinc finger protein 442) | SID160749884 | 0.853 | 98.8 | 0.617 | inactive
ZNF442 (zinc finger protein 442) | SID160749886 | 1.97 | 121 | 0.854 | inactive
UGP2 (UDP-glucose pyrophosphorylase 2) | SID160718595 | -0.733 | 67.3 | -0.803 | inactive
UGP2 (UDP-glucose pyrophosphorylase 2) | SID160718596 | -0.135 | 79.2 | -0.85 | inactive
UGP2 (UDP-glucose pyrophosphorylase 2) | SID160718597 | 0.354 | 88.9 | -0.262 | inactive
NAV3 (neuron navigator 3) | SID160753428 | 0.195 | 85.8 | 0.869 | inactive
NAV3 (neuron navigator 3) | SID160753429 | -1.47 | 52.7 | -0.999 | inactive
NAV3 (neuron navigator 3) | SID160753430 | 0.763 | 97.1 | 0.0809 | inactive
MB21D2 (Mab-21 domain containing 2) | SID160732576 | -1.16 | 58.9 | -1.42 | inactive
MB21D2 (Mab-21 domain containing 2) | SID160759175 | -1.02 | 61.6 | -0.603 | inactive
MB21D2 (Mab-21 domain containing 2) | SID160759176 | -0.213 | 77.7 | -0.185 | inactive
TRIM71 (tripartite motif containing 71) | SID160757056 | 0.212 | 86.1 | 0.151 | inactive
TRIM71 (tripartite motif containing 71) | SID160757057 | 2.11 | 124 | 1.69 | inactive
TRIM71 (tripartite motif containing 71) | SID160757060 | 2.54 | 132 | 3.33 | inactive
PHLDB2 (pleckstrin homology like domain family B member 2) | SID160753558 | -0.394 | 74.1 | -0.654 | inactive
PHLDB2 (pleckstrin homology like domain family B member 2) | SID160753560 | 0.112 | 84.1 | -0.0201 | inactive
PHLDB2 (pleckstrin homology like domain family B member 2) | SID160753561 | 0.773 | 97.3 | 0.454 | inactive
SLC1A2 | SID160716784 | -0.206 | 77.8 | 0.0258 | inactive
SLC1A2 | SID160716785 | 1.35 | 109 | 0.825 | inactive
SLC1A2 | SID160731747 | 2.38 | 129 | 1.51 | inactive
RSL24D1P11 (ribosomal L24 domain containing 1 pseudogene 11) | SID160763237 | -2.16 | 38.9 | 0.0846 | inactive
RSL24D1P11 (ribosomal L24 domain containing 1 pseudogene 11) | SID160763238 | -1.54 | 51.3 | -1.56 | inactive
RSL24D1P11 (ribosomal L24 domain containing 1 pseudogene 11) | SID160763239 | -0.469 | 72.6 | -0.829 | inactive
RSRP1 (arginine and serine rich protein 1) | SID160745520 | 0.989 | 102 | 0.87 | inactive
RSRP1 (arginine and serine rich protein 1) | SID160745521 | -0.917 | 63.7 | -0.74 | inactive
RSRP1 (arginine and serine rich protein 1) | SID160745522 | 1.95 | 121 | 1.47 | inactive

5 entries from above, reduced to “total luciferase, % of control”.
TRIM71 (tripartite motif containing 71) [SID160757056]	86.1
TRIM71 (tripartite motif containing 71) [SID160757057]	124
TRIM71 (tripartite motif containing 71) [SID160757060]	132
PHLDB2 (pleckstrin homology like domain family B member 2) [SID160753558]	74.1
PHLDB2 (pleckstrin homology like domain family B member 2) [SID160753560]	84.1

The list goes on:
Gene | PubChem SID | total luciferase, z-score | total luciferase, % of control | luciferase per cell, z-score | Call
SNRPN (small nuclear ribonucleoprotein polypeptide N) | SID160717146 | 0.0856 | 83.6 | -0.0924 | inactive
SNRPN (small nuclear ribonucleoprotein polypeptide N) | SID160717147 | 0.26 | 87.1 | 0.359 | inactive
SNRPN (small nuclear ribonucleoprotein polypeptide N) | SID160717148 | -0.0538 | 80.8 | 2.97 | inactive
SNRPN (small nuclear ribonucleoprotein polypeptide N) | SID160770247 | -0.103 | 79.8 | -0.477 | inactive
SNRPN (small nuclear ribonucleoprotein polypeptide N) | SID160770248 | -0.456 | 72.8 | -0.753 | inactive
SNRPN (small nuclear ribonucleoprotein polypeptide N) | SID160770249 | -0.652 | 68.9 | -0.582 | inactive
SNRPN (small nuclear ribonucleoprotein polypeptide N) | SID160770263 | 0.944 | 101 | 0.834 | inactive
SNRPN (small nuclear ribonucleoprotein polypeptide N) | SID160770264 | 0.385 | 89.5 | 0.702 | inactive
SNRPN (small nuclear ribonucleoprotein polypeptide N) | SID160770265 | -0.148 | 78.9 | -0.773 | inactive
AQP8 (aquaporin 8) | SID160718794 | -0.176 | 78.4 | -0.495 | inactive
AQP8 (aquaporin 8) | SID160718805 | -2.18 | 38.6 | -2.92 | inactive
AQP8 (aquaporin 8) | SID160718814 | -0.751 | 67 | 0.291 | inactive
C5 (complement C5) | SID160729878 | 0.946 | 101 | 0.224 | inactive
C5 (complement C5) | SID160729888 | -0.503 | 71.9 | -0.702 | inactive
C5 (complement C5) | SID160729898 | -0.883 | 64.3 | -0.482 | inactive
OSBPL3 (oxysterol binding protein like 3) | SID160730914 | 0.0199 | 82.3 | -0.477 | inactive
OSBPL3 (oxysterol binding protein like 3) | SID160737486 | -0.364 | 74.6 | -0.979 | inactive
OSBPL3 (oxysterol binding protein like 3) | SID160737487 | 0.332 | 88.5 | -0.113 | inactive
DDTL (D-dopachrome tautomerase like) | SID160774555 | 1.77 | 117 | 1.9 | inactive
DDTL (D-dopachrome tautomerase like) | SID160774556 | -1.1 | 59.9 | -1.13 | inactive
DDTL (D-dopachrome tautomerase like) | SID160774557 | -0.0812 | 80.3 | 0.138 | inactive
TMEM126A (transmembrane protein 126A) | SID160751927 | 1.89 | 119 | 1.46 | inactive
TMEM126A (transmembrane protein 126A) | SID160751928 | 0.968 | 101 | 1.99 | inactive
TMEM126A (transmembrane protein 126A) | SID160751929 | 0.978 | 101 | 0.851 | inactive
NOL6 (nucleolar protein 6) | SID160748250 | -1.72 | 47.7 | -1.38 | inactive
NOL6 (nucleolar protein 6) | SID160748251 | -0.575 | 70.4 | -0.126 | inactive
NOL6 (nucleolar protein 6) | SID160748253 | -1.03 | 61.3 | -0.36 | inactive
APOBEC2 (apolipoprotein B mRNA editing enzyme catalytic subunit 2) | SID160729549 | -0.826 | 65.5 | -0.00927 | inactive
APOBEC2 (apolipoprotein B mRNA editing enzyme catalytic subunit 2) | SID160729550 | 0.495 | 91.7 | 0.317 | inactive
APOBEC2 (apolipoprotein B mRNA editing enzyme catalytic subunit 2) | SID160729553 | 0.674 | 95.3 | 0.751 | inactive
ERC1 (ELKS/RAB6-interacting/CAST family member 1) | SID160735407 | 0.27 | 87.3 | -0.23 | inactive
ERC1 (ELKS/RAB6-interacting/CAST family member 1) | SID160735408 | 4.25 | 166 | 2.55 | active
ERC1 (ELKS/RAB6-interacting/CAST family member 1) | SID160735409 | -0.802 | 65.9 | -1.39 | inactive
CSAG3 (CSAG family member 3) | SID160725246 | -0.786 | 66.2 | -0.934 | inactive
CSAG3 (CSAG family member 3) | SID160725247 | -0.44 | 73.1 | -1 | inactive
CSAG3 (CSAG family member 3) | SID160766314 | 0.326 | 88.4 | 0.892 | inactive
EXOC4 (exocyst complex component 4) | SID160747061 | 0.113 | 84.1 | -0.501 | inactive
EXOC4 (exocyst complex component 4) | SID160747062 | 0.393 | 89.7 | -0.122 | inactive
EXOC4 (exocyst complex component 4) | SID160747063 | -0.906 | 63.9 | -0.351 | inactive
SNRPD2 (small nuclear ribonucleoprotein D2 polypeptide) | SID160717131 | 2.1 | 124 | 3.24 | inactive
SNRPD2 (small nuclear ribonucleoprotein D2 polypeptide) | SID160717132 | 3.02 | 142 | 2.46 | active
SNRPD2 (small nuclear ribonucleoprotein D2 polypeptide) | SID160731772 | 3.22 | 146 | 3.87 | active
CDK9 (cyclin dependent kinase 9) | SID160741018 | -0.0535 | 80.8 | 1.41 | inactive
CDK9 (cyclin dependent kinase 9) | SID160741028 | 0.279 | 87.4 | 0.132 | inactive
CDK9 (cyclin dependent kinase 9) | SID160741039 | -0.378 | 74.4 | -0.903 | inactive
